Experiment: Measurement of saturation solubility of the paclitaxel solid dispersion
Assay type: physicochemical
Settings: paclitaxel dissolved in 1 ml distilled water, room temperature, vortex 5 hrs, left about 24 hr, 0.45 μm filtrate, HPLC

- Degree of saturated solubility: 0.57 ppm
Compound: CC(=O)O[C@H]1C(=O)[C@@]2(C)[C@H]([C@H](OC(=O)c3ccccc3)[C@]3(O)C[C@H](OC(=O)[C@H](O)[C@@H](NC(=O)c4ccccc4)c4ccccc4)C(C)=C1C3(C)C)[C@]1(OC(C)=O)CO[C@@H]1C[C@@H]2O [Control, Paclitaxel]

Reference: patent US20060078619A1, “Method for the preparatin of paclitaxel solid dispersion by using the supercritical fluid process and paclitaxel solid dispersion prepared thereby” (HANMI PHARM CO., LTD., priority 2002, published 2006)
